Measurements reported in publication PMC7533328, “Sulfane sulfur‐activated actinorhodin production and sporulation is maintained by a natural gene circuit in Streptomyces coelicolor”.
For at least one entry, the source does not settle the construct or the ends of the probe. The comparison behind a weaker result is the experiment's own reference, which may not be listed here. At least one verdict rests on a figure or table, not on a statement of the authors. Protein sequences can lack the tags named with them.

Target: T1, ScCsoR (Streptomyces coelicolor M145) (UniProt Q9RD62)
T1 sequence (looked up, limits assumed): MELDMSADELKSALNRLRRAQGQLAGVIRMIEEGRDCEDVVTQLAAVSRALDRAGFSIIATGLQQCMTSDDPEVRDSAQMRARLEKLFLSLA
Assay: EMSA
Conditions: 1-3 mM HSnH, ScCsoR 8 uM; 20 mM Tris-HCl pH 8.0, 2 mM EDTA, 20 mM KCl, 0.5 mM DTT (or 1-3 mM HSnH), 4% Ficoll-400, 1 nM probe, 25 C, 15 min; recombinant …; protein details: N-terminal His-tag (pET15b); label: 5'-biotin on strand 1

## CCTGGGTATATCTGTTACGGTGGCCGGAAGAGATACCCCAGGGGGTAATTCCGGAAGGAGAGCGTGCCGTGTTCTTTGT (double strand) [Scpdo 79-bp probe (bsI, bsII)]
  binding result: binds more weakly
